From patent US8765679B2, “Extract and peptides derived from Oryza sativa Japonica Group and uses thereof” (Yissum Research Development Company of The Hebrew …, priority 2010, dated 2014)

Test: RA1-like immunoreactivity in sera and spleen (ELISA)
Design: species or system mice
Conditions: for RA1 immunoreactivity in serum: ELISA
Excerpt: Polyclonal antibodies were raised against RA1.

Sequence: AEMIDLAAKMLSEGRG (ORYZA SATIVA JAPONICA) [RA1, 16-mer peptide, amino acid residues 217-232 of Oryza sativa Japonica Group]
- RA1 in spleen per wet weight (BALB/C mice): 57 ng/g
- RA1 immunoreactivity in serum (BALB/C mice (resistant strain)): 166 pg/mL
- RA1 in spleen (C57BL/6 mice): no peptide could be detected
- RA1 immunoreactivity in serum (C57BL/6 mice (sensitive strain)): undetectable amount
